These results are taken from paper PMC7955167 (Structure(London, England:1993), 2021).

No constants are given. Whether binding was seen depends on the method and setting.

Experiment [1] concerns the target T1, IRAK4 kinase domain (residues 160-460) D329A, unphosphorylated (human) (UniProt Q9NWZ3).
T1 sequence: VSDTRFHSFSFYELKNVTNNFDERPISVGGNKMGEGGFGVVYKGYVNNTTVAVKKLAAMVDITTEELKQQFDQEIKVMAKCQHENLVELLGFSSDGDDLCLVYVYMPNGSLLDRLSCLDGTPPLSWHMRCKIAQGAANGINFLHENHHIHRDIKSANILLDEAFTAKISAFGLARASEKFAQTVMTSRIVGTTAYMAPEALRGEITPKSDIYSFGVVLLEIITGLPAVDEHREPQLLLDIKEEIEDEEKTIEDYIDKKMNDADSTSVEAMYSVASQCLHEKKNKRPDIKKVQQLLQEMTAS
The experiment is described as follows: native gel or EMSA; native PAGE co-migration; continuous 10% acrylamide gel, 375 mM Tris/HCl pH 8.8; running buffer 25 mM Tris, 192 mM glycine, pH 8.3; 1 mg/ml per protein, pre-incubated on ice for 1 h; Coomassie stain; both purified. (In EMSA bound probe runs differently from free probe, usually more slowly.)

In experiment [2] the target is IRAK3 pseudokinase domain (residues 145-454) L210E (human) (UniProt Q9Y616). The experiment in a line: SEC; analytical gel filtration, Superdex Increase 3.2/300, 20 mM HEPES pH 7.5, 200 mM NaCl, 10% glycerol, 1 mM DTT; 25 μl loaded at 1-5 mg/ml; fractions on SDS-PAGE; monomer to dimer; both purified.

B1: IRAK2 pseudokinase domain (residues 192-507) (domain or fragment, UniProt O43187 192-507)
chain: AGDSLFWSEADVVQATDDFNQNRKISQGTFADVYRGHRHGKPFVFKKLRETACSSPGSIERFFQAELQICLRCCHPNVLPVLGFCAARQFHSFIYPYMANGSLQDRLQGQGGSDPLPWPQRVSICSGLLCAVEYLHGLEIIHSNVKSSNVLLDQNLTPKLAHPMAHLCPVNKRSKYTMMKTHLLRTSAAYLPEDFIRVGQLTKRVDIFSCGIVLAEVLTGIPAMDNNRSPVYLKDLLLSDIPSSTASLCSRKTGVENVMAKEICQKYLEKGAGRLPEDCAEALATAACLCLRRRNTSLQEVCGSVAAVEERLRGRE
Turning to B1, the binding entry in experiment [1] is recorded as “no binding (tested: 1 mg/ml per protein)”.

B2: IRAK3 pseudokinase domain (residues 145-454) L210E (domain or fragment, UniProt Q9Y616 145-454)
chain: KGILLKSSISFQNIIEGTRNFHKDFLIGEGEIFEVYRVEIQNLTYAVKLFKQEKKMQCKKHWKRFESELEVLLLFHHPNILELAAYFTETEKFCLIYPYMRNGTLFDRLQCVGDTAPLPWHIRIGILIGISKAIHYLHNVQPCSVICGSISSANILLDDQFQPKLTDFAMAHFRSHLEHQSCTINMTSSSSKHLWYMPEEYIRQGKLSIKTDVYSFGIVIMEVLTGCRVVLDDPKHIQLRDLLRELMEKRGLDSCLSFLDKKVPPCPRNFSAKLFCLAGRCAATRAKLRPSMDEVLNTLESTQASLYFAE
For B2, the binding entry in experiment [2] was “no binding (tested: 1-5 mg/ml)”.
